Laboratory results taken from US20250146080A1, “METHODS FOR OVERCOMING TAZEMETOSTAT-RESISTANCE IN CANCER PATIENTS” (MEMORIAL SLOAN-KETTERING CANCER CENTER, priority 2022, published 2025).
At least one structure is not confirmed: it was looked up by name or label, or the drawing left a doubt.

Experiments:
[1] = tested on: RB1^del G401 cells; assay: Cell viability (CellTiter-Glo), G401 RB1^del clones E1 and F2; assay type: cell-based; details: for sensitivity to CDK4/6 inhibitors, effect of RB1^del mutation: 9 days
Experimental: G401 cells with RB1 mutations were engineered by Synthego. […] Ribonucleprotein containing spCas9 and sgRNA was transfected into G401 cells by electroporation. […] The cells were then single-cell cloned and re-verified by Sanger sequencing.
Drug and media were replaced on Days 4, 7, and 11. […] CellTiter-Glo reagent was freshly reconstituted on the day of measurement and added in a 1:1 proportion to cell media. […] Cell line doubling time was determined by measuring cell viability every 24 hours over the course of 4 days, and fitting the cell viability to a two-parameter exponential curve. […] After the addition of cells, drugs were added using a pin tool (stainless steel pins with 50 nL slots, V&P Scientific) mounted onto a liquid handling robot (CyBio Well vario, Analytik Jena). For analysis of synergy, we used the synergyFinder package (2). Outliers due to pinning errors were excluded after manual examination.

[2] = tested on: RB1^WT G401 cells; assay: Flow cytometry cell cycle analysis (EdU/propidium iodide), G401 RB1^WT; assay type: cell-based; details: 1 μM TAZ
Experimental: On Day 11, cells were pulsed with EdU for 1 hour. Cells were then harvested and processed for flow cytometry using the manufacturer's protocol (Click-iT, Invitrogen). Briefly, cells were washed with PBS with 1% BSA, permeabilized, and incubated with AlexaFluor647 for 30 minutes. DNA content was measured using propidium iodide (0.05 μg/μL). Cells were analyzed on a CytoFLEX LX (Beckman Coulter).

[3] = tested on: HYMAD_EPIS_X0004aS1 tumor; assay: HYMAD_EPIS_X0004aS1 PDX model; assay type: in vivo, mice; details: TAZ monotherapy
[4] = tested on: RPA phosphorylation; assay: Western blot of replication stress (RPA phosphorylation at S4/8 and T21); assay type: cell-based; details: 10 μM TAZ
[5] = tested on: PGBD5 expression; assay: RNA-seq of G401 cells treated with TAZ; assay type: cell-based; details: 10 μM TAZ, 11 days, regardless of RB1 status
[6] = tested on: MYCN protein; assay: Western blot of MYCN protein in G401 cells; assay type: cell-based; details: 10 μM TAZ, 11 days
[7] = tested on: SMARCB1-deficient sarcomas; details: patients, tazemetostat; cited from earlier work
[8] = tested on: patient-derived rhabdoid tumor and epithelioid sarcoma xenografts (PDX); assay: Panel of five patient-derived xenografts (PDX) in immunodeficient mice; details: 5 PDXs, monotherapies versus combination
[9] = tested on: SMARCB1-deficient MRT and ES cell lines; assay: Cell viability of MRT and ES cell line panel, monotherapy or combination; assay type: cell-based; details: 11 days; 200 nM TAZ, 8 nM barasertib or 8 nM elimusertib

## CCN(c1cc(-c2ccc(CN3CCOCC3)cc2)cc(C(=O)NCc2c(C)cc(C)[nH]c2=O)c1C)C1CCOCC1 [TAZ, Tazemetostat]
[1]; 10 μM tazemetostat, 14 days
  cell viability of RB1^del cells: resistant
[2]
  cell cycle effect: arrest at the G1/S checkpoint
[3]
  tumor response: relatively poor response
[4]
  replication stress as measured by RPA phosphorylation: did not induce apparent replication stress
[5]
  PGBD5 expression: significant increase in expression
[6]
  MYCN protein abundance: failed to increase MYCN protein abundance
[7]
  patient response rates: ~15%
[8]
  tumor growth (caliper volumes): modest reduction of tumor growth

## CCN(CCCOc1ccc2c(Nc3cc(CC(=O)Nc4cccc(F)c4)n[nH]3)ncnc2c1)CCOP(=O)(O)O [barasertib]
[1]; seleciclib, alisertib 9 days, barasertib 6 days
  overcoming TAZ resistance in RB1^del G401 cells: able to overcome TAZ resistance
[9]
  effect on cell viability: substantial susceptibility
[8]
  tumor growth (caliper volumes): modest reduction of tumor growth

## CCN1CCN(Cc2ccc(Nc3ncc(F)c(-c4cc(F)c5nc(C)n(C(C)C)c5c4)n3)nc2)CC1 [abemaciclib]
[1]
  sensitivity to CDK4/6 inhibitors, effect of RB1^del mutation: reduced

## CC(=O)c1c(C)c2cnc(Nc3ccc(N4CCNCC4)cn3)nc2n(C2CCCC2)c1=O [palbociclib]
[1]
  sensitivity to CDK4/6 inhibitors, effect of RB1^del mutation: reduced
